Results published in publication PMC7819943, “Rice protein-binding microarrays: a tool to detect cis-acting elements near promoter regions in rice”.
This is one part of the list.

Amino acid sequences for entries named in this document (tags omitted).
UniProt Q0JBA9, entry or part of it: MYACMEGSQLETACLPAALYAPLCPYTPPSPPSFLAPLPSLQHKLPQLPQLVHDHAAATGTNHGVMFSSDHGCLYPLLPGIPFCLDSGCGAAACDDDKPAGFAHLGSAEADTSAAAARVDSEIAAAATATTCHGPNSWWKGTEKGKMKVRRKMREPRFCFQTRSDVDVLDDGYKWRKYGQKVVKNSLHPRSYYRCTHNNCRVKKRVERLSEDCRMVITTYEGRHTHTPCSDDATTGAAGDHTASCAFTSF

Target: OsWRKY34 (Oryza sativa, UniProt Q0JBA9 1-250)
Test: protein-binding microarray (RPBM); PBS, 2% BSA, 51.3 ng/ul salmon testes DNA, 50 uM zinc acetate, 200 nM TF, 25 C, 1 h; high values mean tight binding
Details: protein: recombinant; tags: N-terminal polyhistidine and DsRed monomer fusion (pET32a); label: CyDye5-dUTP incorporated in the synthesized complementary strand; 3' TTTTT single-stranded linker to array surface; dsDNA, one strand shown
Outline: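 The binding signal for each feature is its fluorescence intensity in arbitrary units. An Axon 4000B scanner was used to read a custom Agilent array that had been made double-stranded with Cy5-dUTP primer extension, blocked with 2% BSA, incubated at 25 °C for 1 h with 200 nM protein in PBS, 2% BSA, salmon testes DNA and 50 µM zinc acetate, and washed. The protein was an N-terminal polyhistidine–DsRed transcription factor fusion from E. coli BL21-CodonPlus, purified on Ni–NTA.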

| Sequence | binding signal |
| --- | --- |
| GCTTGTATATCCTCGATCTTGTAATTGACCCGAGAGTTTTCGGAGTCACCTAGTGCAG | 10100 fluorescence intensity (a.u.) |
| CTTTGGGCAGAATTCTTCTTCTCTCTCGCGCGGCCCAAGTCGGAGTCACCTAGTGCAG | 10800 fluorescence intensity (a.u.) |
| CTAGTATTACTTTTGTATCTAAATTTGGGCTAGGGATTATCGGAGTCACCTAGTGCAG | 8140 fluorescence intensity (a.u.) |
| CATCGCGGTGGGGCCCACCTGTCAGCCACAGCCCCGACGACGGAGTCACCTAGTGCAG | 8240 fluorescence intensity (a.u.) |
| TTGCGTTTTGGGTGGTGAATTTTGATTTTGATTCTTTTTTCGGAGTCACCTAGTGCAG | 12700 fluorescence intensity (a.u.) |
| AATGTATTCTCCGTTTAGGATTATTTTTATGTCCTCTTTGCGGAGTCACCTAGTGCAG | 9620 fluorescence intensity (a.u.) |
| GCCTATGATCAGTATACATGACCATCCTTCATGGCCATCTCGGAGTCACCTAGTGCAG | 8860 fluorescence intensity (a.u.) |
| ATCTCTCCGCCGCTCACTACCCTCTTGTTGACCACCGCTCCGGAGTCACCTAGTGCAG | 14000 fluorescence intensity (a.u.) |
| ACATGCCCTAATTTTATGAGTTAGAGCTCTACGTGCTCTTCGGAGTCACCTAGTGCAG | 9170 fluorescence intensity (a.u.) |
| TCATTTTTATATTTTTCCTAAGTGTTATAATACTCTGTTTCGGAGTCACCTAGTGCAG | 8350 fluorescence intensity (a.u.) |
| GGATAGTTCGTGCATGTAGTGTGGGTGTTTAGGGCATATACGGAGTCACCTAGTGCAG | 9130 fluorescence intensity (a.u.) |
| ATCTCGCCCACGCCAGCTAAGCCTTTGTACGCACAACATGCGGAGTCACCTAGTGCAG | 11700 fluorescence intensity (a.u.) |
| CCTGAGTTAGTAGTCGACTACTGTGTTTTTTTTTTCATGTCGGAGTCACCTAGTGCAG | 9880 fluorescence intensity (a.u.) |
| CGGGAGCCAGGTGGATTGGGCTGAGGTGGTGGTGGTGGGCCGGAGTCACCTAGTGCAG | 11900 fluorescence intensity (a.u.) |
| CCTCCTTGCCCCGATTCGCCGCCGGTCTCCTCCCCTCCGCCGGAGTCACCTAGTGCAG | 9180 fluorescence intensity (a.u.) |
| TGCAAGCTCCGCCGTTTGTGTGTAATGGGGTTTCCCAAATCGGAGTCACCTAGTGCAG | 8230 fluorescence intensity (a.u.) |
| AGTTTTTGCTTGTAACGTTTGACCACTCGTCTTATTTAATCGGAGTCACCTAGTGCAG | 11700 fluorescence intensity (a.u.) |
| TAGCCCTTGTCGTTTTCATGTAGAACTCTATTCATCCTTCCGGAGTCACCTAGTGCAG | 11400 fluorescence intensity (a.u.) |
| GGACACCTTACATCTATAGTTTCGTGATAGTTTCGTGATACGGAGTCACCTAGTGCAG | 9330 fluorescence intensity (a.u.) |
| ATCACATGTCATACACACACAACTTTTCAGTCACATCATCCGGAGTCACCTAGTGCAG | 8940 fluorescence intensity (a.u.) |
| CCGTGTAATGTTGATTGCGTCTTTCTAGGTTTAGTTTGCACGGAGTCACCTAGTGCAG | 8100 fluorescence intensity (a.u.) |

| Sequence | binding signal |
| --- | --- |
| TTGATCTCATGTCGCTGCTAGGTAATTCGGTTCTGTTTTACGGAGTCACCTAGTGCAG | 11800 fluorescence intensity (a.u.) |
| CATCATTTTTCGCTTTCTATTTTGATTCCCCGTTGCCAAGCGGAGTCACCTAGTGCAG | 8700 fluorescence intensity (a.u.) |
| CATAGTGCACGATGTTCCCTACTTATATCCATTTTTATATCGGAGTCACCTAGTGCAG | 8340 fluorescence intensity (a.u.) |
| TCAGTGTGCGGGCAAACCTTCCTCATCCTTGCCCTTATCTCGGAGTCACCTAGTGCAG | 8190 fluorescence intensity (a.u.) |
| GGCGGAATCCACCGTCTCACTGCGCGCCCTGCCCCGCCTGCGGAGTCACCTAGTGCAG | 10700 fluorescence intensity (a.u.) |
| CCCTCTCCCTCGTTTTCTGCACGCACGCTTTTCAAACTGCCGGAGTCACCTAGTGCAG | 8280 fluorescence intensity (a.u.) |
| GATTTCGACCTCTGCCTATTAGGGTGCTCGGTCTCTGAGCCGGAGTCACCTAGTGCAG | 8090 fluorescence intensity (a.u.) |
| TTGCTGCTTATCTTGCATAGATACGGCCGGCTTTTCCCTTCGGAGTCACCTAGTGCAG | 8390 fluorescence intensity (a.u.) |
| CCGCGTTTGCAGATCGATTTCGTTTTACTCCTTTCCCACACGGAGTCACCTAGTGCAG | 10300 fluorescence intensity (a.u.) |
| ATGTTGATTATCTCTCATGCATTATTATTATTTAATTAATCGGAGTCACCTAGTGCAG | 9070 fluorescence intensity (a.u.) |
| CTAATTAAGCTACCCAACCATCTGACATGGTTTACTACTTCGGAGTCACCTAGTGCAG | 8420 fluorescence intensity (a.u.) |
| ACTTATTTTAGTTTGACTTGATTTTTCATCAAATGTTTTTCGGAGTCACCTAGTGCAG | 10400 fluorescence intensity (a.u.) |
| GCTGTCCACGACGTCGTCTTCGTCGTCCTCCTCTTCGCCGCGGAGTCACCTAGTGCAG | 8180 fluorescence intensity (a.u.) |
| TGGTCAAAAACGTCTCTGCCCATGACCACTCGCCCAAAACCGGAGTCACCTAGTGCAG | 8130 fluorescence intensity (a.u.) |
| CCACGATATTTTAAGTTATACTATCTCCGTCTCAAAATATCGGAGTCACCTAGTGCAG | 9130 fluorescence intensity (a.u.) |
| TGGTACTGCGTGCGGTGGGGTAGGAGTAGGAGGTTTCTTTCGGAGTCACCTAGTGCAG | 16600 fluorescence intensity (a.u.) |
| AATATGTGCCGGTAGCGCGTACGCGTCCACTAGCAACCCCCGGAGTCACCTAGTGCAG | 8180 fluorescence intensity (a.u.) |
| TTCCCGTGCTAACGTTTGACTGTCTGTCTTATATGAAATTCGGAGTCACCTAGTGCAG | 9390 fluorescence intensity (a.u.) |
| CCACCTGAGAAACATACTACTCCCTGCCATACACCACCCTCGGAGTCACCTAGTGCAG | 8050 fluorescence intensity (a.u.) |
| AAATGTGATGCTGCAACTTGTCCGTCCCATGTATGAATTCCGGAGTCACCTAGTGCAG | 8420 fluorescence intensity (a.u.) |
| CGTATCATACTGTACATTGTATCAACTGATCCTGACTCCGCGGAGTCACCTAGTGCAG | 9030 fluorescence intensity (a.u.) |

As entered above.
TGGTCAAAAACGTCTCTGCCCATGACCACTCGCCCAAAACCGGAGTCACCTAGTGCAG | binding signal: 8130 fluorescence intensity (a.u.)
CCACCTGAGAAACATACTACTCCCTGCCATACACCACCCTCGGAGTCACCTAGTGCAG | binding signal: 8050 fluorescence intensity (a.u.)
